Assay results taken from ChEMBL document CHEMBL3525956, “Species independence in brain tissue binding using brain homogenates” (Drug Metab Dispos, 2011).

Key:
[1] = Fraction unbound in Hartley guinea pig brain homogenates at 1 uM after 6 hrs by equilibrium dialysis method; conditions: brain homogenate
[2] = Fraction unbound in Wistar Han rat brain homogenates at 1 uM after 6 hrs by equilibrium dialysis method; conditions: brain homogenate
[3] = Fraction unbound in human occipital cortex at 1 uM after 6 hrs by equilibrium dialysis method
[4] = Fraction unbound in CD-1 mouse brain homogenates at 1 uM after 6 hrs by equilibrium dialysis method; conditions: brain homogenate

| Compound | fraction unbound at 6 h, 1 µM [1] | fraction unbound at 6 h, 1 µM [2] | fraction unbound at 6 h, 1 µM [3] | fraction unbound at 6 h, 1 µM [4] |
| --- | --- | --- | --- | --- |
| COc1cc2c(cc1OC)C(=O)C(CC1CCN(Cc3ccccc3)CC1)C2 (configuration not stated) [DONEPEZIL] | 0.082 | 0.111 | 0.113 | – |
| Nc1nc2ccc(OC(F)(F)F)cc2s1 [RILUZOLE] | 0.011 | 0.011 | 0.012 | 0.012 |
